# Source: the supplement of paper PMC8728848
# The list shows a part of the results.
# Tests used:
# Assay in all cases: glycan array binding signal (z-score within array); higher = stronger binding
# Conditions in all cases: glycan notation: IUPAC condensed, linker removed
# [1] = target: Kdn(a2-3)Gal(b1-3)GlcNAc
# Outline: (§1)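 Arrays were curated from the Consortium for Functional Glycomics database, 3228 in total, and kept only where the protein sequence was available. Binding is expressed as a within-array Z-score. This score was averaged across arrays of the same protein sequence at different concentrations or buffers and across linkers, and negative values can be read as non-binding.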
# [2] = target: Kdn(a2-3)Gal(b1-4)Glc
# Outline: as §1
# [3] = target: Kdn(a2-3)Gal(b1-4)GlcNAc
# Outline: as §1
# [4] = target: Kdn(a2-3)Gal(b1-4)[Fuc(a1-3)]GlcNAc
# Outline: as §1
# [5] = target: Kdn(a2-6)Gal(b1-4)GlcNAc
# Outline: as §1
# [6] = target: Man(a1-2)Man(a1-2)Man(a1-3)Man
# Outline: as §1
# [7] = target: Man(a1-2)Man(a1-2)Man(a1-6)[Man(a1-3)]Man
# Outline: as §1
# [8] = target: Man(a1-2)Man(a1-3)Man
# Outline: as §1
# [9] = target: Man(a1-2)Man(a1-3)[Man(a1-2)Man(a1-6)]Man
# Outline: as §1
# [10] = target: Man(a1-2)Man(a1-3)[Man(a1-2)Man(a1-6)]Man(a1-6)[Man(a1-2)Man(a1-2)Man(a1-3)]Man
# Outline: as §1
# [11] = target: Man(a1-2)Man(a1-3)[Man(a1-2)Man(a1-6)]Man(a1-6)[Man(a1-2)Man(a1-2)Man(a1-3)]Man(b1-4)GlcNAc(b1-4)GlcNAc
# Outline: as §1
# [12] = target: Man(a1-2)Man(a1-3)[Man(a1-6)]Man(a1-6)[Man(a1-2)Man(a1-3)]Man(b1-4)GlcNAc(b1-4)GlcNAc
# Outline: as §1
# [13] = target: Man(a1-2)Man(a1-6)[Man(a1-3)]Man(a1-6)[Man(a1-2)Man(a1-2)Man(a1-3)]Man
# Outline: as §1
# [14] = target: Man(a1-2)Man(a1-6)[Man(a1-3)]Man(a1-6)[Man(a1-2)Man(a1-2)Man(a1-3)]Man(b1-4)GlcNAc(b1-4)GlcNAc
# Outline: as §1
# [15] = target: Man(a1-3)[Man(a1-6)]Man
# Outline: as §1
# [16] = target: Man(a1-3)[Man(a1-6)]Man(a1-6)[Man(a1-2)Man(a1-3)]Man(b1-4)GlcNAc(b1-4)GlcNAc
# Outline: as §1
# [17] = target: Man(a1-3)[Man(a1-6)]Man(a1-6)[Man(a1-3)]Man
# Outline: as §1
# [18] = target: Man(a1-3)[Man(a1-6)]Man(a1-6)[Man(a1-3)]Man(b1-4)GlcNAc(b1-4)GlcNAc
# Outline: as §1
# [19] = target: Man(a1-3)[Man(a1-6)]Man(b1-4)GlcNAc(b1-4)GlcNAc
# Outline: as §1
# [20] = target: Man(a1-3)[Man(a1-6)]Man(b1-4)GlcNAc(b1-4)[Fuc(a1-6)]GlcNAc
# Outline: as §1
# [21] = target: Man(a1-6)Man
# Outline: as §1
# [22] = target: Man(b1-4)GlcNAc
# Outline: as §1
# [23] = target: MurNAc(b1-4)GlcNAc
# Outline: as §1
# [24] = target: Neu5Ac(a2-3)Gal
# Outline: as §1
# [25] = target: Neu5Ac(a2-3)Gal(b1-3)GalNAc
# Outline: as §1
# [26] = target: Neu5Ac(a2-3)Gal(b1-3)GalNAc(b1-3)Gal(a1-4)Gal(b1-4)Glc
# Outline: as §1
# [27] = target: Neu5Ac(a2-3)Gal(b1-3)GalNAc(b1-4)Gal(b1-4)Glc
# Outline: as §1
# [28] = target: Neu5Ac(a2-3)Gal(b1-3)GalNAc(b1-4)[Neu5Ac(a2-3)]Gal(b1-4)Glc
# Outline: as §1
# [29] = target: Neu5Ac(a2-3)Gal(b1-3)GalNAc(b1-4)[Neu5Ac(a2-8)Neu5Ac(a2-3)]Gal(b1-4)Glc
# Outline: as §1
# [30] = target: Neu5Ac(a2-3)Gal(b1-3)GalNAc6S
# Outline: as §1
# [31] = target: Neu5Ac(a2-3)Gal(b1-3)GlcNAc
# Outline: as §1
# [32] = target: Neu5Ac(a2-3)Gal(b1-3)GlcNAc(b1-2)Man
# Outline: as §1
# [33] = target: Neu5Ac(a2-3)Gal(b1-3)GlcNAc(b1-2)Man(a1-3)[GlcNAc(b1-4)][Neu5Ac(a2-3)Gal(b1-3)GlcNAc(b1-2)Man(a1-6)]Man(b1-4)GlcNAc(b1-4)GlcNAc
# Outline: as §1
# [34] = target: Neu5Ac(a2-3)Gal(b1-3)GlcNAc(b1-2)Man(a1-3)[Neu5Ac(a2-3)Gal(b1-3)GlcNAc(b1-2)Man(a1-6)]Man(b1-4)GlcNAc(b1-4)GlcNAc
# Outline: as §1
# [35] = target: Neu5Ac(a2-3)Gal(b1-3)GlcNAc(b1-2)[Neu5Ac(a2-3)Gal(b1-3)GlcNAc(b1-4)]Man(a1-6)[Neu5Ac(a2-3)Gal(b1-3)GlcNAc(b1-2)Man(a1-3)]Man(b1-4)GlcNAc(b1-4)GlcNAc
# Outline: as §1
# [36] = target: Neu5Ac(a2-3)Gal(b1-3)GlcNAc(b1-3)Gal(b1-3)GlcNAc
# Outline: as §1
# [37] = target: Neu5Ac(a2-3)Gal(b1-3)GlcNAc(b1-3)Gal(b1-4)GlcNAc
# Outline: as §1
# [38] = target: Neu5Ac(a2-3)Gal(b1-3)GlcNAc(b1-3)GalNAc
# Outline: as §1
binder,measurement,setting,value
"HA-00510 (Pseudomonas aeruginosa), Q02V39_PSEAB (protein) GVPIVNIATPNGAGLSNNHFRDYNVGANGLILNNATGKTQGTQLGGIILGNPNLKGQAAQVILNQVTGGNRSTLAGYTEVAGQSARVIVANPHGITCQGCGFINTPRATLTTGKPIMDGQRLERFQVDGGDIVVEGAELNVGNLEQFDLITRSAKLNAKLYAKNLNIVTGRNDVQADSLQATPRAADGSEKPQLAIDSSALGGMYAGAIRLVGTEQGVGVKLAGDMAASGGDIRIDASGKLSLAQASSQGDLKIAAQAVELNGKTYAGGSAEIRSAEELVNRQS",glycan array binding signal (z-score),[1],-0.696
same,glycan array binding signal (z-score),[2],0.718
same,glycan array binding signal (z-score),[3],0.297
same,glycan array binding signal (z-score),[4],1.3
same,glycan array binding signal (z-score),[5],-0.045
same,glycan array binding signal (z-score),[6],-0.329
same,glycan array binding signal (z-score),[7],0.054
same,glycan array binding signal (z-score),[8],-0.716
same,glycan array binding signal (z-score),[9],-0.708
same,glycan array binding signal (z-score),[10],-0.917
same,glycan array binding signal (z-score),[11],0.043
same,glycan array binding signal (z-score),[12],-0.534
same,glycan array binding signal (z-score),[13],0.121
same,glycan array binding signal (z-score),[14],-0.478
same,glycan array binding signal (z-score),[15],0.04
same,glycan array binding signal (z-score),[16],0.521
same,glycan array binding signal (z-score),[17],-0.502
same,glycan array binding signal (z-score),[18],-0.227
same,glycan array binding signal (z-score),[19],-0.254
same,glycan array binding signal (z-score),[20],-0.274
same,glycan array binding signal (z-score),[21],-1.07
same,glycan array binding signal (z-score),[22],-0.041
same,glycan array binding signal (z-score),[23],-0.558
same,glycan array binding signal (z-score),[24],-0.577
same,glycan array binding signal (z-score),[25],-0.342
same,glycan array binding signal (z-score),[26],-0.696
same,glycan array binding signal (z-score),[27],-0.523
same,glycan array binding signal (z-score),[28],0.112
same,glycan array binding signal (z-score),[29],0.683
same,glycan array binding signal (z-score),[30],-0.064
same,glycan array binding signal (z-score),[31],0.098
same,glycan array binding signal (z-score),[32],-0.852
same,glycan array binding signal (z-score),[33],-0.136
same,glycan array binding signal (z-score),[34],-0.642
same,glycan array binding signal (z-score),[35],0.759
same,glycan array binding signal (z-score),[36],-1.16
same,glycan array binding signal (z-score),[37],-1.13
same,glycan array binding signal (z-score),[38],0.479

# A second format for some results above:
binder	measurement	setting	value
HA-00510 (Pseudomonas aeruginosa), Q02V39_PSEAB (protein) GVPIVNIATPNGAGLSNNHFRDYNVGANGLILNNATGKTQGTQLGGIILGNPNLKGQAAQVILNQVTGGNRSTLAGYTEVAGQSARVIVANPHGITCQGCGFINTPRATLTTGKPIMDGQRLERFQVDGGDIVVEGAELNVGNLEQFDLITRSAKLNAKLYAKNLNIVTGRNDVQADSLQATPRAADGSEKPQLAIDSSALGGMYAGAIRLVGTEQGVGVKLAGDMAASGGDIRIDASGKLSLAQASSQGDLKIAAQAVELNGKTYAGGSAEIRSAEELVNRQS	glycan array binding signal (z-score)	[6]	-0.329
same	glycan array binding signal (z-score)	[7]	0.054
